Record: PubChem BioAssay AID1259254 (NCATS, 2017)

Aim: 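Finding genes that stop cells copying their DNA twice in one cycle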 (primary screen)
System: human HCT116 colorectal cancer cells
Reagents: single siRNA against human genes
Duration: 3 days
Measured: 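Imaged Hoechst DNA stain sorts each cell into a cycle phase by DNA amount; per plate, G2 fraction set to 0% for non-targeting and 100% for GMNN siRNA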
Reading the numbers: G2 robust z-score: higher = more G2 cells, more excess DNA replication
Call rule: 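An siRNA counts as active if its G2 robust z-score lies at least 5 MADs above the screen median; here such calls match roughly 38% of GMNN control or more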
In all, the deposit lists about 59,000 reagents; below is a random part of them. Over the whole deposit, about 1,550 (2.6%) were called active. 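G2 share is only a proxy for re-replication; each gene was hit by three separate siRNAs, and active genes were retested.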 Reagents against one gene are numbered here. Not all columns of the deposit are shown. The record does not give: the amount of reagent.

gene symbol	reagent no.	G2 robust z-score	Call
NLGN4Y	1	-0.557	inactive
NLGN4Y	2	1.21	inactive
NLGN4Y	3	0.122	inactive
NMD3	1	-0.986	inactive
NMD3	2	0.179	inactive
NMD3	3	0.946	inactive
ELMO1	1	-0.358	inactive
ELMO1	2	0.096	inactive
ELMO1	3	2.2	inactive
CLEC4E	1	-0.368	inactive
CLEC4E	2	2.35	inactive
CLEC4E	3	4.33	inactive
YWHAH	1	-0.129	inactive
YWHAH	2	1.71	inactive
YWHAH	3	-0.0751	inactive
VPS13A	1	2.39	inactive
VPS13A	2	-0.849	inactive
VPS13A	3	0.019	inactive
OR2M2	1	-0.056	inactive
OR2M2	2	2.92	inactive
OR2M2	3	0.587	inactive
SMC4	1	3.52	inactive
SMC4	2	3.56	inactive
SMC4	3	1.31	inactive
LMLN	1	0.891	inactive
LMLN	2	-0.453	inactive
LMLN	3	4.66	inactive
ZNF780B	1	2.74	inactive
ZNF780B	2	-0.656	inactive
ZNF780B	3	1.55	inactive
TPMT	1	-0.962	inactive
TPMT	2	-0.188	inactive
TPMT	3	-0.265	inactive
GATD1	1	0.106	inactive
GATD1	2	0.742	inactive
GATD1	3	-1.03	inactive
C6orf120	1	-0.952	inactive
C6orf120	2	-0.79	inactive
C6orf120	3	1.05	inactive

The list goes on (9 carried over from the part before).
gene symbol	reagent no.	G2 robust z-score	Call
TPMT	1	-0.962	inactive
TPMT	2	-0.188	inactive
TPMT	3	-0.265	inactive
GATD1	1	0.106	inactive
GATD1	2	0.742	inactive
GATD1	3	-1.03	inactive
C6orf120	1	-0.952	inactive
C6orf120	2	-0.79	inactive
C6orf120	3	1.05	inactive
IL27	1	-0.43	inactive
IL27	2	0.753	inactive
IL27	3	1.36	inactive
ZDHHC22	1	-1.46	inactive
ZDHHC22	2	-0.125	inactive
ZDHHC22	3	2.5	inactive
BAG3	1	-0.355	inactive
BAG3	2	0.672	inactive
BAG3	3	0.125	inactive
ZNF100	1	-0.0417	inactive
ZNF100	2	0.00486	inactive
ZNF100	3	-0.491	inactive
CSNK2B	1	3.14	inactive
CSNK2B	2	1.06	inactive
CSNK2B	3	-0.031	inactive
WDR53	1	-0.327	inactive
WDR53	2	3.85	inactive
WDR53	3	0.839	inactive
CPXCR1	1	-1.1	inactive
CPXCR1	2	1.34	inactive
CPXCR1	3	0.237	inactive
PSD2	1	-0.0807	inactive
PSD2	2	3.25	inactive
PSD2	3	1.07	inactive
TMPRSS4	1	-0.29	inactive
TMPRSS4	2	5.23	active
TMPRSS4	3	-0.779	inactive
C1orf50	1	-0.82	inactive
C1orf50	2	-0.376	inactive
C1orf50	3	0.656	inactive
